{
  "source": "patent US11680062B2",
  "about": "“3,4-methylenedioxyphenylimidazolylethanonexime ether derivative, preparation method and use thereof, and drug for the treatment of Alzheimer's disease” (NORTHWEST A&F UNIVERSITY, priority 2021, dated 2023)",
  "tested_on": "NO production in lipopolysaccharide-induced BV-2 microglia",
  "assay": "Inhibition of NO production in lipopolysaccharide-induced BV-2 microglia",
  "assay_type": "cell-based",
  "conditions": "Mus musculus",
  "note": "Like-named read-outs stand apart in the source and are kept apart here.",
  "data": [
    {"compound": "Clc1ccc(CO/N=C(\\Cn2ccnc2)c2ccc(Cl)cc2Cl)c(Cl)c1", "note": "[oxiconazole, reference compound]", "values": [
      {"measurement": "EC50", "setting": "read-out: EC50 (inhibition of NO production)", "result": 13.5, "unit": "µM"},
      {"measurement": "EC50", "setting": "read-out: EC50 (inhibitory effect on the NO production)", "result": "13.5 ± 0.1", "unit": "µM"}
    ]}
  ]
}
